# Measured values published in ChEMBL document CHEMBL4296182, “CO-ADD screening of NIH NCI Diversity Set V”.
# Where “and” joins values, the source holds several entries; their conditions need not be identical. Equal values may be shown once. The list shows a part of the results. Potency and affinity values are given separately.
# System: Pseudomonas aeruginosa
# Conditions: Concentration 20 uM, ASSAY_TEST Inhibition of Bacterial Growth, detection method Absorption (OD600), MEDIA CAMHB, plate type 384well, NBS, CORNING #3640, time 18 hr
compound,measurement,setting,value
N=C(N)n1c(N)nc2ccccc2c1=O,Inhibition,,8.45%
NC(=S)N/N=C/c1cc(-c2cccc(N)c2)ccn1,Inhibition,,3.8%
Cc1nc2ccnn2c(O)c1CCc1ccccc1,Inhibition,,11.23%
C#CCCOC(=O)Nc1ccccc1,Inhibition,,17.08%
CCCCc1c(C)nc(S)nc1O,Inhibition,,10.84%
Br.CN(C)c1n/c(=N/Cc2ccco2)ss1,Inhibition,,22.68%
CSc1cccc(NC(=O)N2CCN(C)CC2)c1,Inhibition,,6.78%
Cn1c(SCc2ccccn2)nc2c1c(=O)[nH]c(=O)n2C,Inhibition,,16.97%
O=C(Nc1ccc(Cl)cc1)Nc1cccc2nsnc12,Inhibition,,-9.37%
COc1ccc2c(=O)cc(-c3cccnc3)oc2c1OC,Inhibition,,7.45%
CCCCSc1cc(C)nc(N)n1,Inhibition,,27.44%
Cc1cccnc1N=C(S)Nc1ncccc1C,Inhibition,,9.37%
N#Cc1ncc(Cl)c2ccccc12,Inhibition,,-12.33%
NC1=C2C(=O)c3ccccc3C(=O)C2=C(N)CC1,Inhibition,,-14.52%
O=c1ccn2c(n1)SC(c1ccccc1)C2 (configuration not stated),Inhibition,,-3.69%
Nc1ccccc1SC1CC(=O)N(c2ccccc2Cl)C1=O (configuration not stated),Inhibition,,-10.93%
Nc1ccccc1SC1CC(=O)N(c2ccc(Cl)c(Cl)c2)C1=O (configuration not stated),Inhibition,,12.53%
Nc1cc(-c2ccccc2)ccc1O,Inhibition,,12.04%
N#CC1=C2CCCCC2(O)NC1=O (configuration not stated),Inhibition,,6.64%
O=C1C(CO)C(CO)C(CO)C1CO (configuration not stated),Inhibition,,17.32%
CC1(C)N=C(N)N=C(N)N1c1ccc(OCCCOc2ccccc2)c(Cl)c1.CCS(=O)(=O)O,Inhibition,,17.09%
C(=N\N=c1/nnn(Cc2ccccc2)[nH]1)/c1ccccc1,Inhibition,,12.3%
CC(=O)Nc1c(C)cc(OCC(=O)O)cc1C,Inhibition,,17.35%
Cc1c(COC(=O)NC(C)C)c(COC(=O)NC(C)C)c2n1CS(=O)(=O)C2,Inhibition,,15.85%
COc1ccc(NC(=O)CC(C)=O)c(OC)c1,Inhibition,,16.88%
c1cc(-n2nnc3cnccc32)ccn1,Inhibition,,17.77%
O=C(NC(=S)Nc1cccc(O)c1)c1ccco1,Inhibition,,8.77%
O=[N+]([O-])/C=C/c1cc2ccccc2[nH]1,Inhibition,,2.83%
Oc1cc(-n2cccn2)c(O)cc1-n1cccn1,Inhibition,,-0.58%
CC(C)(C)CC(C)(C)n1nnnc1N,Inhibition,,22.33%
O=C(/C=C/c1ccccc1Cl)c1ccc(O)cc1,Inhibition,,-5.86%
Cn1nc(N)c2ncc(C(Cl)(Cl)Cl)nc21,Inhibition,,12.02%
OCC1CCCC(n2cnc3c(S)ncnc32)O1 (configuration not stated),Inhibition,,6.5%
Cn1c(=O)c2c(nc(N3CCCCC3)n2C)n(C)c1=O,Inhibition,,5.07%
O=C(Cn1nnc(N2CCCCC2)n1)N/N=C/c1ccccc1O,Inhibition,,27.98%
CCOC(=O)/C(C#N)=C/c1cccc(C)c1,Inhibition,,6.01%
Clc1nc(NCCc2ccccc2)c2c[nH]nc2n1,Inhibition,,4.27%
OC(COc1cccc2ccccc12)CN1CCN(c2ccc(Cl)cc2)CC1 (configuration not stated),Inhibition,20 µM,20.79% and 32.81%
O=C(O)C(Cc1c[nH]c2ccccc12)N1C(=O)c2ccccc2C1=O (configuration not stated),Inhibition,,10.61%
Clc1cc2c(nn1)Nc1ccccc1S2,Inhibition,,10.47%
COc1cc(NC(=O)c2cc3ccccc3cc2O)c(OC)cc1Cl,Inhibition,,14.02%
CCOC(=O)c1nc(SC)n(C)c1C(=O)OCC,Inhibition,,21.78%
Oc1ncc(I)cc1I,Inhibition,,12.95%
CCCCOc1ccc(NC(=O)Nc2nnc(C)s2)cc1,Inhibition,,22.94%
CC(C)(C)NC1=NCCNC(c2ccccc2)=C1.CS(=O)(=O)O,Inhibition,,28.79%
CCC(C)c1c(N)n(S(=O)(=O)c2ccc(C)cc2)oc1=O (configuration not stated),Inhibition,,16.51%
N#CC1C(=O)NC(=O)C(C#N)C12CCCC(C(F)(F)F)C2 (configuration not stated),Inhibition,,-6.35%
CC(=O)Nc1nc(C)c(CCCOc2ccc([N+](=O)[O-])cc2)c(O)n1,Inhibition,,13.59%
NC(=O)c1ccc(Oc2ccc(C(N)=O)cc2)cc1,Inhibition,,11.03%
O=S(=O)(O)c1ccc2c(c1)C(C(Cl)(Cl)Cl)OC(C(Cl)(Cl)Cl)O2 (configuration not stated),Inhibition,,28.49%
C[C@]12CC[C@@H]3c4ccc(OCC(=O)O)cc4CC[C@H]3[C@@H]1CCC2=O,Inhibition,,20.73%
CC1=C(O)C(=O)C(c2c(C)cc(C)c(Br)c2C)=C(O)C1=O,Inhibition,,24.07%
COC(=O)c1cncc(C)c1,Inhibition,,18.38%
Nc1nc(N)nc(C2C=CCCC2)n1 (configuration not stated),Inhibition,,25.38%
c1ccc(-c2nnc(-c3ccccn3)[nH]2)nc1,Inhibition,,1.32%
CC(C)(C)NC(=O)c1ccc(C(=O)NC(C)(C)C)cc1,Inhibition,,5.02%
Cn1c(=O)c2nc(CCCc3ccc([N+](=O)[O-])cc3)[nH]c2n(C)c1=O,Inhibition,,10.09%
Cc1[nH]c(=O)n(C(C)C)c(=O)c1Br,Inhibition,,17.3%
O=C(O)C(c1ccccc1)C1(O)CCCCC1 (configuration not stated),Inhibition,,16.85%
CC(=O)OCc1cc(-c2nc3ccccc3nc2O)nn1-c1ccc(Cl)cc1,Inhibition,,-9.31%
COc1ccc(/C=C2/CCOC2=O)cc1,Inhibition,,21.63%
Nc1nc2c[nH]c(N)nc-2n1,Inhibition,,25.21%
Nc1ccc(/N=N/c2ccccc2Cl)c(N)n1,Inhibition,,15.86%
CC1=NN(c2ccccc2)C(=O)C1/N=N/c1ccc(S(N)(=O)=O)cc1 (configuration not stated),Inhibition,,28.67%
C1=CC2(C=C1)OC21CCC2(C=CC3(C2)OC3C2CCCCC2)CC1 (configuration not stated),Inhibition,,0.87%
C=CCNc1ncnc2sc(SC)nc12,Inhibition,,0.4%
COc1ccc(/N=N/c2ccc(N)nc2N)cc1,Inhibition,,0.9%
O=C(NCc1ccco1)Nc1cccc([N+](=O)[O-])c1,Inhibition,,-4.12%
O=C(O)c1cncc(Br)c1,Inhibition,,3.46%
Cn1c(=O)c2c(nc(Oc3ccccc3)n2C)n(C)c1=O,Inhibition,,3.64%
Oc1ccc2ccc3[nH]cnc3c2c1,Inhibition,,1.65%
Cc1cc(C)c(C#N)c(Sc2nc(C)c([N+](=O)[O-])c(C)c2C#N)n1,Inhibition,,13.43%
CC(=O)OC1COC(OC(C)=O)CO1 (configuration not stated),Inhibition,,-22.89%
CC(=O)NCC(O)c1ccc([N+](=O)[O-])cc1 (configuration not stated),Inhibition,,18.6%
C1=Cc2ccccc2Nc2ccccc21 [IMINOSTILBENE],Inhibition,,16.78%
Nc1cnc(Nc2ccc(Br)cc2)nc1N.O=S(=O)(O)O,Inhibition,,-9.21%
OC(COc1ccccc1)CN1CCN(c2ccccc2)CC1 (configuration not stated),Inhibition,,11.01%
Cc1c(C#N)c2n(c1C)CCCC(=O)N2,Inhibition,,2.2%
CC(=O)Nc1cc(NC(C)=O)ncn1,Inhibition,,20.37%
CC(=O)n1cc(C2CC(=O)OC3=C2CC(=O)C(C)(C)C3)c2ccccc21 (configuration not stated),Inhibition,,20.14%
CCOC(=O)/C(C#N)=C\c1c[nH]c2ccccc12,Inhibition,,-22.4%
O/N=C(/c1ccccc1)c1ccc2c3c(cccc13)CC2,Inhibition,,11.31%
C=CCc1ccccc1OCC(=O)O,Inhibition,,16.77%
CC(=O)NCC1(O)CCCC(C)C1 (configuration not stated),Inhibition,,-1%
Cc1nnc2nc(-c3ccccc3)nc(-c3ccccc3)n12,Inhibition,,5.56%
Cn1c2c(c(=O)n(C)c1=O)NC1(N2)C(=O)Nc2ccccc21 (configuration not stated),Inhibition,,-0.84%
Clc1ccc(Nc2nnc(-c3ccc4c(c3)OCO4)o2)cc1,Inhibition,,29.93%
CCOC(=O)CC(=O)NC(C)(C)CCCCC(C)(C)NC(=O)CC(=O)OCC,Inhibition,,17.16%
CCC(CNc1cc(OC)cc2cccnc12)NC1CCCCC1 (configuration not stated),Inhibition,,14.31%
O=C(O)c1cc(O)ccc1/N=N/c1ccccc1,Inhibition,,-2.55%
C=C(C)C/N=C/C1(C)CCC(C)=CO1 (configuration not stated),Inhibition,,-9.38%
CSc1ncc2ncn(C3OC(CO)C(O)C3O)c2n1 (configuration not stated),Inhibition,,-8.45%
CCOC(=O)c1c(C)nc(C)c(C(=O)OCC)c1-c1ccc(OC)cc1,Inhibition,,-13.4%
Cc1cc(O)c(-c2cc(O)c(C)cc2O)cc1O,Inhibition,,-0.36%
O=C(O)/C=C\C(=O)Nc1nccs1,Inhibition,,14.14%
O=C(C(=O)c1cccnc1)c1cccnc1,Inhibition,,14.14%
C#Cc1cccc(NC(=O)c2ccc(Cl)cc2Cl)c1,Inhibition,,6.65%
O=C(CCl)NC1(C(=O)O)CCCC1,Inhibition,,-8.58%
CCOC(=O)Nc1ccc(C(=O)/C=C/c2ccccc2)cc1,Inhibition,,6.46%
Cc1ccc(/N=N/c2ccc(N)cc2C)c(S(N)(=O)=O)c1,Inhibition,,-1.43%
COc1ccc2c(c1)c1ccc3c(c1n2C)C(=O)C=CC3=O,Inhibition,,-14.24%
CCOC(=O)c1c(O)cc(C)nc1O,Inhibition,,3.48%
Nc1ccc(S(=O)(=O)NCC2CCCCO2)cc1 (configuration not stated),Inhibition,,9.04%
CCCCN1C(=O)CC2CCOC21C (configuration not stated),Inhibition,,11.36%
COc1ccc(C2C3=C(COC3=O)Oc3cc4c(cc32)OCO4)cc1OC (configuration not stated),Inhibition,,18.03%
c1ccc(Sc2ncccn2)nc1,Inhibition,,6.51%
COc1ccc(/C(C#N)=C/c2ccccn2)cc1,Inhibition,,3.9%
CCOc1ccc(Nc2c3ccccc3nc3ccccc23)cc1,Inhibition,,-8.45%
O=[N+]([O-])c1cccnc1Oc1cccnc1,Inhibition,,15.57%
CCCCn1ccnc1C,Inhibition,,2.35%
Cc1cc(-c2ccc(N3C(=O)CC4(CCCC4)C3=O)c(C)c2)ccc1N1C(=O)CC2(CCCC2)C1=O,Inhibition,,12.96%
c1ccc2c(c1)Oc1cccc3cccc-2c13,Inhibition,,12.61%
CN(CC(=O)O)Cc1oc(CO)cc(=O)c1O,Inhibition,,23.09%
CC12CCC(/C(=N/c3ccc(/N=C4\C(=O)C5(C)CCC4C5(C)C)cc3)C1=O)C2(C)C,Inhibition,,20.66%
O=C(O)CCC(=O)OCCN(Cc1ccc(Oc2ccc([N+](=O)[O-])cc2)cc1)C(=O)C(Cl)Cl,Inhibition,,-8.03%
N#Cc1cnn2ccn(C3OC(CO)C(O)C3O)c12 (configuration not stated),Inhibition,,6%
Cc1ccc(NC(=O)Nc2ccccc2C(N)=O)cc1,Inhibition,,12.6%

# Random excerpt: two records from the list, in no set order.
compound,measurement,setting,value
COc1cc(NC(=O)c2cc3ccccc3cc2O)c(OC)cc1Cl,Inhibition,,14.02%
Cc1c(COC(=O)NC(C)C)c(COC(=O)NC(C)C)c2n1CS(=O)(=O)C2,Inhibition,,15.85%

# Part of the list above, bar-delimited.
compound | measurement | setting | value
Cc1cc(O)c(-c2cc(O)c(C)cc2O)cc1O | Inhibition |  | -0.36%
O=C(O)/C=C\C(=O)Nc1nccs1 | Inhibition |  | 14.14%
O=C(C(=O)c1cccnc1)c1cccnc1 | Inhibition |  | 14.14%
C#Cc1cccc(NC(=O)c2ccc(Cl)cc2Cl)c1 | Inhibition |  | 6.65%
